These are yes or no findings as the source states them, for the method shown. In cells and extracts the contact can be indirect. Here binding means that the protein was enriched with, or labelled near, the bait; the list need not be complete.
Biological target: MAF bZIP transcription factor F (MAFF) (human (endogenous in Caco-2)) (UniProt Q9ULX9)
Test: affinity purification with mass spectrometry; MAFF protein complex captured by a MAFF antibody, analysed by SDS-PAGE and mass spectrometry; two repeated experiments

By UniProt entry, the sequences of proteins in these tests, tags left out. Where a name states a change or a piece, a line headed by the entry shows the natural chain unless it says otherwise. Residues count along the entry.
UniProt Q9ULX9: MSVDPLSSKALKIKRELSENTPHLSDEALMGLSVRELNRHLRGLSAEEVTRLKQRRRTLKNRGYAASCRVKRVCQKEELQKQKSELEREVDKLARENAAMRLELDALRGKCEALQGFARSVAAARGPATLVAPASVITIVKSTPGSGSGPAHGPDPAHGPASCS
UniProt Q08554: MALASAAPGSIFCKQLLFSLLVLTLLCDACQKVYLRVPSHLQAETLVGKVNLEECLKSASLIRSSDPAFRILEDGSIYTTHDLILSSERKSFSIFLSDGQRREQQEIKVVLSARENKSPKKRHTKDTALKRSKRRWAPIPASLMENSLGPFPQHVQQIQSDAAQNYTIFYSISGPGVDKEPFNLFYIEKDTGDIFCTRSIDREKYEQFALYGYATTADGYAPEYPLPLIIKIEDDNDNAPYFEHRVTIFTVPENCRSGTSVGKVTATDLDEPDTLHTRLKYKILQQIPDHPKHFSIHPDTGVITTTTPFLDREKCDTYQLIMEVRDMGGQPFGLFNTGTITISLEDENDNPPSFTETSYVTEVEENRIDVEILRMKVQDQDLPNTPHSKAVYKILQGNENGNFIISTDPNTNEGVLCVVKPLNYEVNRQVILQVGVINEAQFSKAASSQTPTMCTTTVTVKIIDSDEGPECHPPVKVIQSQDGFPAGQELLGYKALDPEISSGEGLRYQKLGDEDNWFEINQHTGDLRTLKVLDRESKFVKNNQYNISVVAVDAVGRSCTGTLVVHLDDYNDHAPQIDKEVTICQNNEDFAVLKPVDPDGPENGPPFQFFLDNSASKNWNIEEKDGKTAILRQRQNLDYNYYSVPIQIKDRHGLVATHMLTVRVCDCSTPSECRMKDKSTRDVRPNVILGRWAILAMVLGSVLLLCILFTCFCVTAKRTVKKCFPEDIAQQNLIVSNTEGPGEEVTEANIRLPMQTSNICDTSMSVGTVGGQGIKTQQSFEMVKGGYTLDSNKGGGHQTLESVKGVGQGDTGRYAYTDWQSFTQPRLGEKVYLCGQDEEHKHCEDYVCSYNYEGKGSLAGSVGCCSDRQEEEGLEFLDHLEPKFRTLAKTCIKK
UniProt Q02413, residues 50-1049: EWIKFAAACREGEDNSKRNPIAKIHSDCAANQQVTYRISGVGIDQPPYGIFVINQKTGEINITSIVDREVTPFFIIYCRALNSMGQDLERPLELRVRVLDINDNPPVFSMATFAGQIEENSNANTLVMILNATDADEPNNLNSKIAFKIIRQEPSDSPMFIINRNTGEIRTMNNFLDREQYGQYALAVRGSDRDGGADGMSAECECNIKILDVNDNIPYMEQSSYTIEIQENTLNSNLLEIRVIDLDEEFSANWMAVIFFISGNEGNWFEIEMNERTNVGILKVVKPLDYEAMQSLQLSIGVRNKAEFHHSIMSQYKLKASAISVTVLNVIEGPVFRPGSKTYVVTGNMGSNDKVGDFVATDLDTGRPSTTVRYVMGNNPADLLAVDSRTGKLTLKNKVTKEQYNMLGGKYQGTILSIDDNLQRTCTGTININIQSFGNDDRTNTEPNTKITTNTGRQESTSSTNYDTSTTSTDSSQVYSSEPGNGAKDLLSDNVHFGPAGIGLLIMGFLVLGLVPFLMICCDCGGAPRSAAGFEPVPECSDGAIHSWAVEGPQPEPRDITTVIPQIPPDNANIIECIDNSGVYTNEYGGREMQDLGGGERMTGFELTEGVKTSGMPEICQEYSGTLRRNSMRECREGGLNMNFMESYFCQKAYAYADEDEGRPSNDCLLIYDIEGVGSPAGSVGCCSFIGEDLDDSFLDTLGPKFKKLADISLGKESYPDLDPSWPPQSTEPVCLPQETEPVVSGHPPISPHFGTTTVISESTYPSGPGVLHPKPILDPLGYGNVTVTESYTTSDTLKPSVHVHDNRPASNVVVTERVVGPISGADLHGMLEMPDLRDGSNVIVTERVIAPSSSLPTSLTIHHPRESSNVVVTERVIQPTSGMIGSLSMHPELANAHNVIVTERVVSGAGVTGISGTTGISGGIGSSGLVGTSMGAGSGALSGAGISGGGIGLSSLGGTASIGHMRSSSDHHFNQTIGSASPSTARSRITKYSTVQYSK
UniProt P15924: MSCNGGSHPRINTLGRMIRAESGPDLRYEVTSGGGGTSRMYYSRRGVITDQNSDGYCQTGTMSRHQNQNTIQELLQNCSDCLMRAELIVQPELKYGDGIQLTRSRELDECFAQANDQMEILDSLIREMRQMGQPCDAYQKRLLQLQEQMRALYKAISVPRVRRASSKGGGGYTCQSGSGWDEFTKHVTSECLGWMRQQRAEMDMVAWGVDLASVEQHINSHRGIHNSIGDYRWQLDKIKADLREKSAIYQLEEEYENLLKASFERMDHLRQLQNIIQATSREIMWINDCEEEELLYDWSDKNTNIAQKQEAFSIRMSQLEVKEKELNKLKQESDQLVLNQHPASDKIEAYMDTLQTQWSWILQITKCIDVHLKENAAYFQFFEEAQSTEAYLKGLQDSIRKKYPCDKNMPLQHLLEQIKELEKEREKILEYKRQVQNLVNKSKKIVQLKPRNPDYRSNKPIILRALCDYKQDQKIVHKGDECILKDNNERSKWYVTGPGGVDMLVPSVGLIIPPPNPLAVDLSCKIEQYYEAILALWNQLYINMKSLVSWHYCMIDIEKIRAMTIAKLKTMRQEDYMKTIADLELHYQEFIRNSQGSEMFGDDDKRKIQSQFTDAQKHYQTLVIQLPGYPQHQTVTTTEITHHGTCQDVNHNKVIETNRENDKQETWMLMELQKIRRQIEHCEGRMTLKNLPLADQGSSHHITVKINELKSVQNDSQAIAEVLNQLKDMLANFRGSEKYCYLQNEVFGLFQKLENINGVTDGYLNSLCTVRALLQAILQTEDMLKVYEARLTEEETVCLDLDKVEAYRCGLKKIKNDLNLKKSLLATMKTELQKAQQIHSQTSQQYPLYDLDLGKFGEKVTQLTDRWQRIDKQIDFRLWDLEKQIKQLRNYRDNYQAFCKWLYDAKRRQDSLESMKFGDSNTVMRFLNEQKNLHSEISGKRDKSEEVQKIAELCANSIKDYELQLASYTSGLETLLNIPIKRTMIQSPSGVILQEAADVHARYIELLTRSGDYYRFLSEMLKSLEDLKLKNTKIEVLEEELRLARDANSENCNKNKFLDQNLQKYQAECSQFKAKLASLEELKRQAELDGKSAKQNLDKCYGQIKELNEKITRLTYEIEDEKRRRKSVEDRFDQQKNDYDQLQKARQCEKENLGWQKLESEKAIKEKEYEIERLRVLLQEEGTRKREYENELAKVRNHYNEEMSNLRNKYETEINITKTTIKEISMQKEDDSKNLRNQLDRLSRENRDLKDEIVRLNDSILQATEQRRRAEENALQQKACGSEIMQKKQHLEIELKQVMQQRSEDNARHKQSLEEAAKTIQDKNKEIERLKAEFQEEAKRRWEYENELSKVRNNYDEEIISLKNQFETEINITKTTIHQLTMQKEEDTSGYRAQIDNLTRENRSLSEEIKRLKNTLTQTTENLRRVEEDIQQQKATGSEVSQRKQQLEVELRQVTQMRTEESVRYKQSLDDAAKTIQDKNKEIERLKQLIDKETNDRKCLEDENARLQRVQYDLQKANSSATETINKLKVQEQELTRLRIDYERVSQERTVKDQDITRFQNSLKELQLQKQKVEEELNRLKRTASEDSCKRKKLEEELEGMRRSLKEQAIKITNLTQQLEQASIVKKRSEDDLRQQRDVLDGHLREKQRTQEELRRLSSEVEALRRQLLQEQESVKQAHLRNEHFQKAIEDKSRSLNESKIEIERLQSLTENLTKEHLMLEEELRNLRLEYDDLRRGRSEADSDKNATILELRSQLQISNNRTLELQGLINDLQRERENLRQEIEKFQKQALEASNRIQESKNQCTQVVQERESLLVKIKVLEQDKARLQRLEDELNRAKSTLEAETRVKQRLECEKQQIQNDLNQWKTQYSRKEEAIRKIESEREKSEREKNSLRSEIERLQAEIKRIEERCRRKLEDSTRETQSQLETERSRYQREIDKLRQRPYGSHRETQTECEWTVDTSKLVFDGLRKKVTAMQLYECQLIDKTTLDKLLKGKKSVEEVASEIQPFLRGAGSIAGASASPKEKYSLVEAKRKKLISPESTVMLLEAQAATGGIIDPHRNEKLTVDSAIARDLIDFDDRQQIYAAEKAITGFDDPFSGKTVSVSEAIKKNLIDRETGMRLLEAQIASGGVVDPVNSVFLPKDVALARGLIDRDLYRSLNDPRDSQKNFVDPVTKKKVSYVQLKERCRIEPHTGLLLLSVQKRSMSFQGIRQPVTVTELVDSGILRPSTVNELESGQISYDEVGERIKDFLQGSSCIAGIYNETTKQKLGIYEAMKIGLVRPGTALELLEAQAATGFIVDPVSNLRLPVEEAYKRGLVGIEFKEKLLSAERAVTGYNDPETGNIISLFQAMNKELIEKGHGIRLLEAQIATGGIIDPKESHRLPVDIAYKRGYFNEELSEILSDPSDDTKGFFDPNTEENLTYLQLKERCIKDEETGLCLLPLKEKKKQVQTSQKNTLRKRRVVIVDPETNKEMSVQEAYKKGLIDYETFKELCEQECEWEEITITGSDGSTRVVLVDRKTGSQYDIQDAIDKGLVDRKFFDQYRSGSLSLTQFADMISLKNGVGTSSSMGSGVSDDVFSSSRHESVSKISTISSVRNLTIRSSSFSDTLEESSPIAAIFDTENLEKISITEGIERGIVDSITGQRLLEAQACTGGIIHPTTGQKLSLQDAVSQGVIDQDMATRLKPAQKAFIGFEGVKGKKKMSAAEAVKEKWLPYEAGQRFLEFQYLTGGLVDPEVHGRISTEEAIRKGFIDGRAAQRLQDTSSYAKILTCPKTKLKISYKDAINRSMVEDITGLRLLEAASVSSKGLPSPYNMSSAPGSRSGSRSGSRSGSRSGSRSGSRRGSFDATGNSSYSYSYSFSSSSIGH
UniProt P06733, residues 94-434: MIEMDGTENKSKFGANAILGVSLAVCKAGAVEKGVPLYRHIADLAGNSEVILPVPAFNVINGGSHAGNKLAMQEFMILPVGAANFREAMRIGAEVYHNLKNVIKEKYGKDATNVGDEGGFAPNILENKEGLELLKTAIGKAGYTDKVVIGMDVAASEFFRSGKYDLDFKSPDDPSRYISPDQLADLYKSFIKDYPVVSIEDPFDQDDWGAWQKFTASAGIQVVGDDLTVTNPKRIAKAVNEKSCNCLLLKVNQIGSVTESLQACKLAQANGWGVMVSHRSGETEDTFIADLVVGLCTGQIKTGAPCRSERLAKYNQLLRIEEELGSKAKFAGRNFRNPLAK

Molecule | binding
Desmocollin 1 (from UniProt Q08554) | binds
Desmoglein-1 (from UniProt Q02413 50-1049) | binds
Desmoplakin (from UniProt P15924 1-2871) | binds
c-myc promoter binding protein 1 (MBP1) (from UniProt P06733-2 1-341) | binds
Junction plakoglobin (protein, UniProt P14923 1-745) MEVMNLMEQPIKVTEWQQTYTYDSGIHSGANTCVPSVSSKGIMEEDEACGRQYTLKKTTTYTQGVPPSQGDLEYQMSTTARAKRVREAMCPGVSGEDSSLLLATQVEGQATNLQRLAEPSQLLKSAIVHLINYQDDAELATRALPELTKLLNDEDPVVVTKAAMIVNQLSKKEASRRALMGSPQLVAAVVRTMQNTSDLDTARCTTSILHNLSHHREGLLAIFKSGGIPALVRMLSSPVESVLFYAITTLHNLLLYQEGAKMAVRLADGLQKMVPLLNKNNPKFLAITTDCLQLLAYGNQESKLIILANGGPQALVQIMRNYSYEKLLWTTSRVLKVLSVCPSNKPAIVEAGGMQALGKHLTSNSPRLVQNCLWTLRNLSDVATKQEGLESVLKILVNQLSVDDVNVLTCATGTLSNLTCNNSKNKTLVTQNSGVEALIHAILRAGDKDDITEPAVCALRHLTSRHPEAEMAQNSVRLNYGIPAIVKLLNQPNQWPLVKATIGLIRNLALCPANHAPLQEAAVIPRLVQLLVKAHQDAQRHVAAGTQQPYTDGVRMEEIVEGCTGALHILARDPMNRMEIFRLNTIPLFVQLLYSSVENIQRVAAGVLCELAQDKEAADAIDAEGASAPLMELLHSRNEGTATYAAAVLFRISEDKNPDYRKRVSVELTNSLFKHDPAAWEAAQSMIPINEPYGDDMDATYRPMYSSDVPLDPLEMHMDMDGDYPIDTYSDGLRPPYPTADHMLA | binds
Dermcidin (protein, UniProt P81605 20-110) YDPEAASAPGSGNPCHEASAAQKENAGEDPGLARQAPKPRKQRSSLLEKGLDGAKKAVGGLGKLGKDAVEDLESVGKGAVHDVKDVLDSVL | binds

Reference: paper PMC8968858
